Data published in the M2OR odorant receptor database.
Positions count from the first letter of the chain named. The entries are a selection whose mix differs from that of the whole data set. Calls are pooled over several reports, among them a noisy single-well screen. The list shows a part of the results.

Chains of the proteins cited; added tags and fusions are not shown. Lines headed by an entry give the natural chain unless they say otherwise; changes in a name come on top.
UniProt Q8NH64: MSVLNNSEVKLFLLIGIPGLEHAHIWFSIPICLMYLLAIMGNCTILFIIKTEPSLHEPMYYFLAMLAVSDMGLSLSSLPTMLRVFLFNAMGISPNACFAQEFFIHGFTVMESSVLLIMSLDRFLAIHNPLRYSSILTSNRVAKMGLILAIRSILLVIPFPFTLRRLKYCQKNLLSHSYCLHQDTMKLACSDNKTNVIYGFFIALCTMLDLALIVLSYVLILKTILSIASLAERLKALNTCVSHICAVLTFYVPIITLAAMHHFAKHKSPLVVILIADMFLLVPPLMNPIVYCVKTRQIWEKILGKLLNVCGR
UniProt Q9Y5P0: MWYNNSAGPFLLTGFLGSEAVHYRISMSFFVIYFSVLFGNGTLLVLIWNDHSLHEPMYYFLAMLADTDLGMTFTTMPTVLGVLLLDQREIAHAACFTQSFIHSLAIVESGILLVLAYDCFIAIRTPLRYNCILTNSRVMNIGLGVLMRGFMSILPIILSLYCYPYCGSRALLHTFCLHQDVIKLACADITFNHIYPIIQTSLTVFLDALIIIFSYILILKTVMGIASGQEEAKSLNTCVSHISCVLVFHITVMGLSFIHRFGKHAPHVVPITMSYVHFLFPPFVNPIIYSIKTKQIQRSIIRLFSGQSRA
UniProt Q9H340: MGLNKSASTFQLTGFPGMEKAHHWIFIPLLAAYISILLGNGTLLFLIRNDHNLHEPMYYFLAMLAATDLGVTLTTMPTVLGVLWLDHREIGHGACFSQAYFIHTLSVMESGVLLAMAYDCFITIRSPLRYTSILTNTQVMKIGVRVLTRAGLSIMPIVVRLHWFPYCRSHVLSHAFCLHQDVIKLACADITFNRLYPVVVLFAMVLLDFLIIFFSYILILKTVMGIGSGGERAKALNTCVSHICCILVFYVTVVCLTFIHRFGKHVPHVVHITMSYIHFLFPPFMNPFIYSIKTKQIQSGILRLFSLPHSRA

Key:
Conditions in all cases: stereoisomer not certain
[1] = target: T1, OR4S2 (Homo sapiens) (UniProt Q8NH73)
T1 sequence (whole entry): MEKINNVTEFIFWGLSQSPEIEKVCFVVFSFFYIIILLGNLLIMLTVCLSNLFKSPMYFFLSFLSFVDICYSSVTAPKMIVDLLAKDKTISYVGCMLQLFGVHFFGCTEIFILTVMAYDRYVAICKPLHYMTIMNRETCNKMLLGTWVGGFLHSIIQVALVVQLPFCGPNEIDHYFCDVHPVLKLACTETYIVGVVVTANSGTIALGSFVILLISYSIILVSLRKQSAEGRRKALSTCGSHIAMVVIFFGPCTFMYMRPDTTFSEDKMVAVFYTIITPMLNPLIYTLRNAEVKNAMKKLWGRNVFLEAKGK
Outline: (§1)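 Values were gathered from published papers (main text and supplementary material), with extra details requested from the original authors when needed, and checked for typos and inconsistencies. Each receptor–molecule pair is called responsive (active) if the original authors judged the measured signal statistically different from baseline, and non-responsive (inactive) otherwise. Assay methods varied by source, often transient mammalian cell-line luciferase assays. Recorded details include cell line, G-protein, co-transfected protein and tags.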

[2] = test system: T2, OR4X1
T2 sequence (whole entry): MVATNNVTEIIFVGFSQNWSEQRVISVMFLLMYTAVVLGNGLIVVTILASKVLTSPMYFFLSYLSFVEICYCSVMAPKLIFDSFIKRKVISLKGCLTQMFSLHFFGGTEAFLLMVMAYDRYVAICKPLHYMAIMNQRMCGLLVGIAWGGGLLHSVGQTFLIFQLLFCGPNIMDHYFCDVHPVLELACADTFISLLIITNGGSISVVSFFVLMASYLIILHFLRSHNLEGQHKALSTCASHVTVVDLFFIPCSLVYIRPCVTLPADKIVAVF
Outline: as §1

[3] = target: T3, OR4X2 (Homo sapiens) (UniProt Q8NGF9)
T3 sequence (whole entry): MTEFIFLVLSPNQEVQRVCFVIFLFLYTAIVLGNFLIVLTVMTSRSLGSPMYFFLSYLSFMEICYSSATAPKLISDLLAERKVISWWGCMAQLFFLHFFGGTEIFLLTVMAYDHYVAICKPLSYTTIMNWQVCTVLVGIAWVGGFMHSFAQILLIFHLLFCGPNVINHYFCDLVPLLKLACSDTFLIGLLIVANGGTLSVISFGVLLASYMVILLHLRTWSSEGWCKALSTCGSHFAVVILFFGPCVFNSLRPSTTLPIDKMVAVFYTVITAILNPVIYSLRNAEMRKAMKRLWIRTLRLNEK
Outline: as §1

[4] = target: T4, OR51A2 (Homo sapiens) (UniProt Q8NGJ7)
T4 sequence (whole entry): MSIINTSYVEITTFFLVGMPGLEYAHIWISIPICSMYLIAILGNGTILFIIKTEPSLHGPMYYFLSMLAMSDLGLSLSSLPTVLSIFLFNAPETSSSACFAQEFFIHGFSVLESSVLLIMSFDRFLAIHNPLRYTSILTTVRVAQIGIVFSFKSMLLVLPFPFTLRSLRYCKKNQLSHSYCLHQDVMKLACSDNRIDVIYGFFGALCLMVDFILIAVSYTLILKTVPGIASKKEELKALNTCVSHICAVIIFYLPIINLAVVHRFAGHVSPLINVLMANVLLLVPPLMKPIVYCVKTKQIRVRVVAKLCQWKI
Outline: as §1

[5] = target: T5, OR51B2 (Homo sapiens) (UniProt Q9Y5P1)
T5 sequence (whole entry): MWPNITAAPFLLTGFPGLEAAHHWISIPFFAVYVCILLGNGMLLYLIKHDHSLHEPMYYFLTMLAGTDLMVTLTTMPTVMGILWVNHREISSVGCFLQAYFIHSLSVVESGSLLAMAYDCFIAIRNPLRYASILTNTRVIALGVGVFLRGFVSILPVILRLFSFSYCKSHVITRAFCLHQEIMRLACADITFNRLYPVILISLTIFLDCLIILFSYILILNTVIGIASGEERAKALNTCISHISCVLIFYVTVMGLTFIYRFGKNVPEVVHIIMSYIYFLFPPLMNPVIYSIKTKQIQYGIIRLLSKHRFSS
Outline: as §1

[6] = target: T6, OR51D1 (Homo sapiens) (UniProt Q8NGF3)
T6 sequence (whole entry): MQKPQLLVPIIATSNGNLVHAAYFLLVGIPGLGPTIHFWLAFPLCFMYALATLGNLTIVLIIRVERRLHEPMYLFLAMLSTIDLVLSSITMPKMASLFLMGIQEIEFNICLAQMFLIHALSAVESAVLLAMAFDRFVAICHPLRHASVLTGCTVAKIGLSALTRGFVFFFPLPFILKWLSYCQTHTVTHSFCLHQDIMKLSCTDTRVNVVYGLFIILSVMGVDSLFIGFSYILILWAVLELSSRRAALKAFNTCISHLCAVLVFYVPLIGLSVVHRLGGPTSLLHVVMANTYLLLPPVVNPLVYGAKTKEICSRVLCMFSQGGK
Outline: as §1

[7] = target: T7, OR51E1 (Homo sapiens) (UniProt Q8TCB6)
T7 sequence (whole entry): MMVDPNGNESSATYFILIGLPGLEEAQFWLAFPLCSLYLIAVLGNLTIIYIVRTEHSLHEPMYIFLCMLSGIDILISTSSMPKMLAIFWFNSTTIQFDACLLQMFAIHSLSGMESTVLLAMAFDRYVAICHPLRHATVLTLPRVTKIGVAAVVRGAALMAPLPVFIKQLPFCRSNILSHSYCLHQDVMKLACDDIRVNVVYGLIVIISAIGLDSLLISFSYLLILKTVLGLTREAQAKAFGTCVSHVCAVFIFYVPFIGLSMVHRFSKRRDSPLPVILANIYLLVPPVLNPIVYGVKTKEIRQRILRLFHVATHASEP
Outline: as §1

[8] = target: T8, OR51E1 (Homo sapiens) (UniProt Q8TCB6); remark: listed apart in the source
T8 sequence (whole entry): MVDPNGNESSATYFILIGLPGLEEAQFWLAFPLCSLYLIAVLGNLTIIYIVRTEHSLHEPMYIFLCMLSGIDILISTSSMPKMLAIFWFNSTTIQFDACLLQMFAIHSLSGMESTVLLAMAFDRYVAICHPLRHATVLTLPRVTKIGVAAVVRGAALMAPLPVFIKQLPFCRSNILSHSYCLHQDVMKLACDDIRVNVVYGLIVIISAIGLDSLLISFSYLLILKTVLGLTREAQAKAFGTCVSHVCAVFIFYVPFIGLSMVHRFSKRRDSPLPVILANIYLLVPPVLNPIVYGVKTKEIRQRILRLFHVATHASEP
Outline: as §1

[9] = target: T9, OR51E2 (Homo sapiens) (UniProt Q9H255)
T9 sequence (whole entry): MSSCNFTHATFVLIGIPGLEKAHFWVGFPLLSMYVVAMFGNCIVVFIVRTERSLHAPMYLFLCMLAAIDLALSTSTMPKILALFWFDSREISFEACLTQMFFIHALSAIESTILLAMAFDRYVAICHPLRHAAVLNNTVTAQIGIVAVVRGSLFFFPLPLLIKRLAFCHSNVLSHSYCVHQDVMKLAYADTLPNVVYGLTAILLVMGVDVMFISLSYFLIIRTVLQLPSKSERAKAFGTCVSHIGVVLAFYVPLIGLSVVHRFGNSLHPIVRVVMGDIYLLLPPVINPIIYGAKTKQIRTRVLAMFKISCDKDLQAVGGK
Outline: as §1

[10] = target: T10, OR51G1 (Homo sapiens) (UniProt Q8NGK1)
T10 sequence (whole entry): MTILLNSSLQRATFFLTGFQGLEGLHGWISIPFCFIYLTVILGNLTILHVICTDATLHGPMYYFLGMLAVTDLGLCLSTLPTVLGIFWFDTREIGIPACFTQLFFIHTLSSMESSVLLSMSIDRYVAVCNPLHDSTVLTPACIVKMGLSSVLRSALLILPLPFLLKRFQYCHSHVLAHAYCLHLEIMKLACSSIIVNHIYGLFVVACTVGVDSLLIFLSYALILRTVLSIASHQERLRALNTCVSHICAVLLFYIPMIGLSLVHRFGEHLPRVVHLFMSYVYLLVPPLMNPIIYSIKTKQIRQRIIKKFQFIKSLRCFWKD
Outline: as §1

[11] = target: T11, OR51H1 (Homo sapiens) (UniProt Q8NH63)
T11 sequence (whole entry): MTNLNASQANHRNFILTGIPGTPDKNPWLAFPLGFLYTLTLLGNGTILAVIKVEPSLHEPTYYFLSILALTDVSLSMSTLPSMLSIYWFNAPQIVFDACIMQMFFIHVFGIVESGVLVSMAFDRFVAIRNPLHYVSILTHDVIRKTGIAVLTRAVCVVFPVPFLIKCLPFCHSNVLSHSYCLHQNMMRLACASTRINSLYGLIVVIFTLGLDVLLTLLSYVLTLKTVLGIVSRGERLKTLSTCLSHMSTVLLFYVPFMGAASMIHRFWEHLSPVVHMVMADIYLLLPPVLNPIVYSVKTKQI
Outline: as §1

[12] = target: T12, OR51A4 (Homo sapiens) (UniProt Q8NGJ6)
T12 sequence (whole entry): T4 sequence (whole entry) with G59E, T94I, S97N, S167N, P227L, E235Q, G267R, M288T, K289N, W311R
Outline: as §1

[13] = target: OR51A7 (Homo sapiens) (UniProt Q8NH64)
Outline: as §1

[14] = target: OR51B4 (Homo sapiens) (UniProt Q9Y5P0)
Outline: as §1

[15] = target: T13, OR51B5 (Homo sapiens) (UniProt Q9H339)
T13 sequence (whole entry): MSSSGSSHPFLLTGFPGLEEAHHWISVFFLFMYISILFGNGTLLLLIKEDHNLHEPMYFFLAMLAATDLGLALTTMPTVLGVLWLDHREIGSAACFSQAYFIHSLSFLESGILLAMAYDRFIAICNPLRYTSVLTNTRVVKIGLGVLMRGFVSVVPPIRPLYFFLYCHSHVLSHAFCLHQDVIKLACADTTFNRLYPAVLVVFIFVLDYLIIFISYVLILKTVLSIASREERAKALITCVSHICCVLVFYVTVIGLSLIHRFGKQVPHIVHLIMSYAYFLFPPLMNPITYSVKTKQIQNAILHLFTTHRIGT
Outline: as §1

[16] = target: OR51B6 (Homo sapiens) (UniProt Q9H340)
Outline: as §1

[17] = target: T14, OR51F1 (Homo sapiens) (UniProt A6NGY5)
T14 sequence (whole entry): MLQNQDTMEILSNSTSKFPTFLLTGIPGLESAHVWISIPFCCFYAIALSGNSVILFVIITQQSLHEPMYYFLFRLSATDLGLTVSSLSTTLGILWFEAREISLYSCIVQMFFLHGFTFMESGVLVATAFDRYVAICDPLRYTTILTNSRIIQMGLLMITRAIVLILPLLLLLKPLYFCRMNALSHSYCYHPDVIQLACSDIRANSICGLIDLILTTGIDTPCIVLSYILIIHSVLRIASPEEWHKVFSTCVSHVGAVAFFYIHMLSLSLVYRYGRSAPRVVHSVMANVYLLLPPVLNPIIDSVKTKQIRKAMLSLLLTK
Outline: as §1

[18] = target: T15, OR51F2 (Homo sapiens) (UniProt Q8NH61)
T15 sequence (whole entry): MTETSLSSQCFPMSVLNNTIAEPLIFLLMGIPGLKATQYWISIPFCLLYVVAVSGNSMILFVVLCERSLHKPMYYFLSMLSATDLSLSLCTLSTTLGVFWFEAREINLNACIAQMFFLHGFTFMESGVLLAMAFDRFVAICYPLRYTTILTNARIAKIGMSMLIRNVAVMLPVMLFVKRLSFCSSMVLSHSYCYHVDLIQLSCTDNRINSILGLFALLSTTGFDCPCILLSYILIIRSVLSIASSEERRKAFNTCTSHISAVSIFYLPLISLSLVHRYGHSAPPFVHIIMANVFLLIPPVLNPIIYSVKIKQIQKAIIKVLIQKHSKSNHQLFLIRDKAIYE
Outline: as §1

[19] = target: T16, OR51G2 (Homo sapiens) (UniProt Q8NGK0)
T16 sequence (whole entry): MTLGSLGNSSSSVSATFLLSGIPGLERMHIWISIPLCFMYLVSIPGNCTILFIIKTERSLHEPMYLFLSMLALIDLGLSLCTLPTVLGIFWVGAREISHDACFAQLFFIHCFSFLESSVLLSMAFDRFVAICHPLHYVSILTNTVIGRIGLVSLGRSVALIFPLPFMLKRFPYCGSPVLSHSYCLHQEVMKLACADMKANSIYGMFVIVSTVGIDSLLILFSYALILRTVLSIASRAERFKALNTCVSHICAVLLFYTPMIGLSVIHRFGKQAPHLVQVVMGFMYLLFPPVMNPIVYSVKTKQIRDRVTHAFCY
Outline: as §1

CC12CCC(C1)C(C)(C)C2=O (stereo unspecified)
odorant receptor agonist call [1]: inactive
odorant receptor agonist call [2]: inactive
odorant receptor agonist call [3]: inactive
odorant receptor agonist call [4]: inactive
odorant receptor agonist call [5]: inactive
odorant receptor agonist call [6]: inactive
odorant receptor agonist call [7]: inactive
odorant receptor agonist call [8]: inactive
odorant receptor agonist call [9]: inactive
odorant receptor agonist call [10]: inactive
odorant receptor agonist call [11]: inactive

O=C1CCCCCCCCCCCCCCO1
odorant receptor agonist call [1]: inactive
odorant receptor agonist call [2]: inactive
odorant receptor agonist call [3]: inactive
odorant receptor agonist call [4]: inactive
odorant receptor agonist call [5]: inactive
odorant receptor agonist call [6]: inactive
odorant receptor agonist call [7]: inactive
odorant receptor agonist call [9]: inactive
odorant receptor agonist call [10]: inactive
odorant receptor agonist call [11]: inactive

CCCC(=O)O
odorant receptor agonist call [1]: inactive
odorant receptor agonist call [2]: inactive
odorant receptor agonist call [3]: inactive
odorant receptor agonist call [4]: inactive
odorant receptor agonist call [12]: inactive
odorant receptor agonist call [13]: inactive
odorant receptor agonist call [5]: inactive
odorant receptor agonist call [14]: inactive
odorant receptor agonist call [15]: inactive
odorant receptor agonist call [16]: inactive
odorant receptor agonist call [6]: active
odorant receptor agonist call [7]: active
odorant receptor agonist call [8]: inactive
odorant receptor agonist call [9]: inactive
odorant receptor agonist call [17]: inactive
odorant receptor agonist call [18]: inactive
odorant receptor agonist call [10]: inactive
odorant receptor agonist call [19]: inactive
odorant receptor agonist call [11]: inactive

CC(C)CCC(=O)O
odorant receptor agonist call [1]: inactive
odorant receptor agonist call [2]: inactive
odorant receptor agonist call [3]: inactive
odorant receptor agonist call [4]: inactive
odorant receptor agonist call [5]: inactive
odorant receptor agonist call [6]: inactive
odorant receptor agonist call [7]: active
odorant receptor agonist call [8]: active
odorant receptor agonist call [9]: inactive
odorant receptor agonist call [10]: inactive
odorant receptor agonist call [11]: inactive

C=CCc1ccc(OC(C)=O)c(OC)c1
odorant receptor agonist call [1]: inactive
odorant receptor agonist call [2]: inactive
odorant receptor agonist call [3]: inactive
odorant receptor agonist call [4]: active
odorant receptor agonist call [5]: active
odorant receptor agonist call [6]: inactive
odorant receptor agonist call [7]: inactive
odorant receptor agonist call [9]: active
odorant receptor agonist call [10]: inactive
odorant receptor agonist call [11]: inactive

c1cnccn1
odorant receptor agonist call [1]: inactive
odorant receptor agonist call [2]: inactive
odorant receptor agonist call [3]: inactive
odorant receptor agonist call [4]: inactive
odorant receptor agonist call [5]: inactive
odorant receptor agonist call [6]: inactive
odorant receptor agonist call [7]: inactive
odorant receptor agonist call [9]: inactive
odorant receptor agonist call [10]: inactive
odorant receptor agonist call [11]: inactive
